Data published in the supplement of paper PMC9254222.
Where a name gives a salt, the structure may show the parent alone. Whole data set: some 1,100 compounds, median “Renilla luciferase signal (cell health) relative to plate median” near 0.97, cut for the highest 2% near 1.6. The entries are a selection whose mix differs from that of the whole data set.

Test system: HEK293T (UBE3A T485A transfected, BAR Wnt reporter)
Assay: Renilla luciferase signal (cell health) relative to plate median (fold (linear ratio)); higher = higher Renilla signal
Settings: 24 h
Method in brief: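 Each value averages four biological replicates in HEK293T cells grown at 4500 cells/well in DMEM with 10% FBS at 37°C and 5% CO2. The cells were transfected with a BAR firefly luciferase Wnt reporter, TK-Renilla and an expression plasmid, then four hours later robotically treated with the chemicals at 0.01–100 uM for 24 h. Dual-Glo luciferase signals were median-centred per plate, with the firefly/Renilla ratio reported as Wnt activity and raw Renilla as cell health.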

Structure (SMILES)	Renilla luciferase signal (concentration: 0.01 uM)	Renilla luciferase signal (concentration: 0.1 uM)	Renilla luciferase signal (concentration: 1 uM)	Renilla luciferase signal (concentration: 10 uM)	Renilla luciferase signal (concentration: 100 uM)
CC12CCC3c4ccc(O)cc4CCC3C1CCC2O (stereo not drawn) [17-beta-estradiol]	0.952	0.917	0.959	1.23	0.0623
Cc1nn(C)c(Oc2ccccc2)c1C=NOCc1ccc(C(=O)OC(C)(C)C)cc1 [Fenpyroximate (Z,E)]	1.31	1.14	0.78	0.334	0.0803
C=CCc1ccc(OC)c(OC)c1 [Methyleugenol]		0.897	0.832	0.797	0.924
O=C(O)c1cccnc1 [Nicotinic acid]		1.13	1.2	1.18	1.48
CCOC(=O)c1ccc([C@H]2CC[C@H](NC[C@H](O)COc3ccc(O)c(NS(C)(=O)=O)c3)CC2)cc1.Cl		0.973	0.878	0.753	0.0262
CCCCCCCCCCCO [1-Undecanol]		1.03	1.2	1.09	1.34
CC(C)c1cccc(C(C)C)c1 [1,3-Diisopropylbenzene]					1.7
O=C(c1ccc(O)cc1O)c1ccc(O)cc1O [2,2',4,4'-Tetrahydroxybenzophenone]		0.947	0.856	1	0.112
c1ccc2[nH]nnc2c1 [1,2,3-Benzotriazole]		1.01	1.02	0.978	0.904
COC(=O)CCCC(=O)OC [Dimethyl glutarate]		0.966	1.05	1.05	1.13
CN1C(=O)N(c2ccccc2Br)Cc2cnc(Nc3ccc4c(c3)OCC(CO)O4)nc21 (stereo not given)		0.198	0.191	0.209	0.0276
CC(=O)[C@H]1CC[C@H]2[C@@H]3CCC4=CC(=O)CC[C@]4(C)[C@H]3CC[C@]12C [Progesterone]		0.973	1.02	1.24	0.311
CCN(CC)C(=O)c1cccc(C)c1					1.79
CC(=O)O [Acetic acid]		0.901	0.923	0.914	1.41
CCCCCCCCCC[N+](C)(C)[O-] [N,N-Dimethyldecylamine oxide]		0.476	0.585	0.465	0.355
O=S(=O)([O-])c1ccc(/N=N/c2c(O)ccc3cc(S(=O)(=O)[O-])ccc23)cc1.[Na+].[Na+] [FD&C Yellow 6]		1.01	1.01	1.07	0.704
CCNc1nc(N)nc(Cl)n1 [Deisopropylatrazine]	0.898	0.991	0.951	0.879	0.243
CC(C)=CCC/C(C)=C\CO [(2Z)-3,7-Dimethylocta-2,6-dien-1-ol]		1.14	1.06	1.09	1.45
Cc1ccccc1Cl [2-Chlorotoluene]		1.09	1.12	1.15	1.29
C=CN1CCCC1=O [N-Vinyl-2-pyrrolidone]		0.841	0.842	0.808	0.931
O=C(N[C@@H](c1ccccc1)[C@@H]1CCCCN1)c1cccc(C(F)(F)F)c1Cl		0.934	0.85	0.48	0.0297
O=C(O)/C=C/C(=O)O.O=C1c2ccccc2C(=O)N1CCc1noc(-c2ccc(CN3CCCCCC3)s2)n1		0.928	0.898	0.893	0.711

Structure (SMILES)	Renilla luciferase signal (concentration: 0.01 uM)	Renilla luciferase signal (concentration: 0.1 uM)	Renilla luciferase signal (concentration: 1 uM)	Renilla luciferase signal (concentration: 10 uM)	Renilla luciferase signal (concentration: 100 uM)
CCNc1cccc(C)c1 [N-Ethyl-3-methylaniline]		1.02	0.916	0.98	0.872
CCCCOC(=O)CCCCCCCCC(=O)OCCCC [Dibutyl decanedioate]		0.969	1.05	1.06	1.01
O=C(OCCCCCCOC(=O)c1ccccc1)c1ccccc1 [Hexane-1,6-diyl dibenzoate]		0.949	1.06	1.04	1.06
CCCC[C@H]1CN(CC2CCOCC2)C(=O)OC12CCN(C1(C)CCN(C(=O)c3c(C)ncnc3C)CC1)CC2		1.08	1	1.05	1.06
C[C@]12C=CC(=O)C=C1CC[C@@H]1[C@@H]2C(=O)C[C@@]2(C)[C@H]1CC[C@]2(O)C(=O)CO [Prednisone]		1.1	1.05	1.14	1.25
COC(=O)c1ccc(C(=O)OC)cc1 [Dimethyl terephthalate]		0.95	1.09	1.01	1.36
CCOC(=O)CC(O)(CC(=O)OCC)C(=O)OCC [Triethyl citrate]		0.872	0.912	0.925	1.18
Cc1ccc(C)c(O)c1C [2,3,6-Trimethylphenol]		0.934	0.808	0.965	1.14
CCCC(CCC)C(=O)O [Valproic acid]	0.788	0.847	0.87	0.883	1.56
CC(C)c1ccc(C(=O)N=C(N)N)cc1S(C)(=O)=O.CS(=O)(=O)O [Cariporide mesylate]		0.921	0.862	0.925	0.891
O=C(CCCN1CCC(O)(c2ccc(Cl)cc2)CC1)c1ccc(F)cc1 [Haloperidol]		0.97	0.967	1.03	0.499
CCCCCCc1ccc(O)cc1O [4-Hexylresorcinol]		0.881	1.04	0.888	0.0332
CC(=O)Oc1ccccc1C(=O)O [Aspirin]		0.978	0.932	1.05	1.24
O=C1OC(c2ccc(O)cc2)(c2ccc(O)cc2)c2ccccc21 [Phenolphthalein]		1.1	1.09	1.15	0.0287
CCn1nc(C)c2c1C(=O)NCC(c1ccc(O)cc1)=N2		1.07	0.999	0.744	0.116
NC(=O)Cn1c(=O)cc(CCN2CCN(c3nccc4sccc34)CC2)c2ccc(F)cc21 [Trelanserin]		0.931	1.12	0.985	0.822
Cc1ccc(C(C)C)c(O)c1 [Thymol]		0.772	0.833	0.856	1.04
OCC(O)CO [Glycerol]		0.57	0.665	0.669	0.79
CCN(CC)C(=S)SSC(=S)N(CC)CC [Disulfiram]		0.78	0.851	0.853	0.534
O=N[O-].[Na+] [Sodium nitrite]		0.92	0.884	0.752	0.941
OCc1ccccc1 [Benzyl alcohol]		0.821	0.813	0.845	0.911
NC=O [Formamide]		0.915	0.912	0.94	1.41

Structure (SMILES)	Renilla luciferase signal (concentration: 0.01 uM)	Renilla luciferase signal (concentration: 0.1 uM)	Renilla luciferase signal (concentration: 1 uM)	Renilla luciferase signal (concentration: 10 uM)	Renilla luciferase signal (concentration: 100 uM)
COc1cc(S(=O)(=O)[O-])c(C)cc1/N=N/c1c(O)ccc2cc(S(=O)(=O)[O-])ccc12.[Na+].[Na+]		0.934	0.936	0.887	0.502
Oc1ccc(O)cc1 [Hydroquinone]		1.05	1.01	0.978	0.111
CCc1ccc(CCOc2ccc(CC3SC(=O)NC3=O)cc2)nc1.Cl (stereo not given) [Pioglitazone hydrochloride]		1.05	1.04	1.05	0.846
CNCc1ccc(NC(=O)c2c[nH]c3c2C(=O)CCC3)cc1		0.616	0.8	0.437	0.144
CCCCC(CC)C(=O)OCCOCCOCCOC(=O)C(CC)CCCC (stereo not given) [Triethylene glycol bis(2-ethylhexanoate)]		0.926	1.01	1.02	1.52
O=C(O)c1cccc(C(=O)O)c1 [1,3-Benzenedicarboxylic acid]		1.04	1.04	1.06	1.35
CNC(=O)[C@H]1O[C@@H](n2cnc3c(NCc4cc(Cl)ccc4OCc4cc(C)no4)ncnc32)[C@H](O)[C@@H]1N		0.795	0.845	0.795	1.12
Nc1ccc2c(c1)C(=O)c1ccccc1C2=O [2-Aminoanthraquinone]		1.16	0.898	0.829	0.621
O=c1ccc2ccccc2o1 [Coumarin]		1.21	1.07	1.11	1.15
CS(=O)(=O)OCCCCOS(C)(=O)=O [Busulfan]		0.819	0.808	0.89	1.06
OCCO [Ethylene glycol]		0.433	0.696	0.664	1.01
CCCCCCCCCCCCOS(=O)(=O)[O-].[Na+] [Sodium dodecyl sulfate]		0.62	0.742	0.587	1.14
COCCOC[C@H](CC1(C(=O)N[C@H]2CC[C@@H](C(=O)O)CC2)CCCC1)C(=O)Oc1ccc2c(c1)CCC2 [Candoxatril]		0.88	0.879	0.984	1.03
CC/C(=C(\c1ccccc1)c1ccc(OCCN(C)C)cc1)c1ccccc1 [Tamoxifen]		1.03	1.05	0.837	0.264
CSC(=O)c1cccc2nnsc12 [Acibenzolar-S-methyl]					1.8
OCCC(F)(F)C(F)(F)C(F)(F)C(F)(F)C(F)(F)C(F)(F)F [3,3,4,4,5,5,6,6,7,7,8,8,8-Tridecafluorooctan-1-ol]		0.641	0.968	0.806	1.17
NCCOCCOCCN [2,2'-[Ethane-1,2-diylbis(oxy)]diethanamine]		0.612	0.862	0.846	0.971
COc1ccc(/C=C/S(=O)(=O)[N-]C(=O)c2ccc(C)cc2Cl)cc1.[Na+]		0.951	0.894	0.525	0.237
O=C(OCCOCCOC(=O)c1ccccc1)c1ccccc1 [Diethylene glycol dibenzoate]		0.873	0.885	1	1.18
CC(C)(C)c1cc(O)c(C(C)(C)C)cc1O [2,5-Di-tert-butylbenzene-1,4-diol]		1.04	0.969	0.801	0.0322
CC(C)(O)c1ccc(CNC(=O)c2cccnc2Oc2ccc(F)cc2)cc1		1.01	1.09	1.01	0.119

Four entries from above, as comma-separated lines:
Structure (SMILES),Renilla luciferase signal (concentration: 0.01 uM),Renilla luciferase signal (concentration: 0.1 uM),Renilla luciferase signal (concentration: 1 uM),Renilla luciferase signal (concentration: 10 uM),Renilla luciferase signal (concentration: 100 uM)
"O=C(O)c1cccc(C(=O)O)c1 [1,3-Benzenedicarboxylic acid]",,1.04,1.04,1.06,1.35
CNC(=O)[C@H]1O[C@@H](n2cnc3c(NCc4cc(Cl)ccc4OCc4cc(C)no4)ncnc32)[C@H](O)[C@@H]1N,,0.795,0.845,0.795,1.12
Nc1ccc2c(c1)C(=O)c1ccccc1C2=O [2-Aminoanthraquinone],,1.16,0.898,0.829,0.621
O=c1ccc2ccccc2o1 [Coumarin],,1.21,1.07,1.11,1.15
